The campaign covered roughly 53,000 sequences. About 3,700 (7%) were called active.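 Rule for the calls: active = gene knockdowns whose robust z-score for IL-1 alpha signal is at least 2 or at most -2, so actives lie on both sides; inactive = the rest.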 The list shows a part of the results.

The assay in a line: Components of the Cytosolic LPS Sensing Pathway: Gene Identification via Genome-wide siRNA Screen.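 Note: robust z of the log signal after scaling to non-targeting control siRNA wells of the plate.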 Particulars: RAW264.7 macrophages, IL-1a HTRF, actives lie on both sides, screened at 100 nM (by protocol), cells primed 5 h with Pam3CSK4 first. The method, boiled down:
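Mouse macrophage line RAW264.7 is transfected with siRNA (100 nM final), grown 48h, primed with TLR ligand Pam3CSK4 5 h and given intracellular LipidA 24 h. IL-1a in supernatant is read by HTRF and viability by luminescence.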
(In TR-FRET formats the signal depends on donor and acceptor labels being close together.)
On to GGACCUGGAGAAAGUCAAGTT against Pacsin1, for which the z-score is inactive: 1.22. As for CGUAGACAUGGCCUUUUUUTT against Dipk1c, the z-score was inactive: -0.863. For GGAUCUGAUGCGUCAGAGATT against Gigyf2 the value was inactive: 0.579; for GCCGACAGCUCCUUUAACUTT against Scamp4, inactive: -0.799; for GGAACCACAUCUCAGCAGGTT against Wnk1, inactive: -0.961. With GCAAUAAGCACCUUCCAUUTT against Gltp, the z-score was inactive: -0.961.

Consider GGAUGUACAAUAAUUGGGATT against Pramel39, for which the z-score is inactive: 1.45.

CCCUAUGUCCGUUCCAAGGTT against Rpl18: the z-score was inactive: 1.32.

With CCGACCUGAAGACCUUACATT against Tmem18, the z-score is inactive: -0.501. On to GCUACACAACUCUCCAUUATT against Crtam, for which the z-score was inactive: -1.97. As to GCAUUUUAGCCUUCGGACATT against C9, the z-score was inactive: -0.483. Under GUCACCCGCUCAAAUCAGATT against H2bc21 stands inactive: 1.45.

Regarding GGAGAGGAAGAUGAUAAAATT against Cdx4, the z-score was inactive: 1.25. With GGAAUACAAAAAUUACCUGTT against Bdnf, the z-score was inactive: -0.00754. As to GCGAUGAAGAGAACUUAAGTT against Pts, the z-score is inactive: 1.08.

With GUGCAGAUACUACCUACAATT against Olfr132, the z-score was inactive: 0.0398. Turning to CGACCAGAGUUAUCUGAAUTT against Ctf2, the z-score is active: 2.2. On to GCUCACAAGAUGGUUCGGGTT against Rab3il1, for which the z-score is inactive: -0.546. As for “GGGUGUGCUUCAUAUCAAATT against 2210407C18Rik”, the z-score is inactive: 0.812. For GCACAGUGUAACUUAGGGCTT against Cenpb, the z-score was inactive: -0.525. For GCCAGCUUUUAGUAUCAACTT against Sun1 the value was active: 2.4; for GGUUCUUUUAUGGAUGACATT against Prkaa2, inactive: -0.964; for CGACACACCUAGCUAAACCTT against Dgkeos, inactive: -1.98. Under GGCCAAAUAACCACUGUGGTT against Lsm10 stands inactive: -1.91. With GGUAGUAAGUGGCAGUCCUTT against Zic5, the z-score was inactive: 0.264.

On to AGUCAUGAAGCAAAUGAUUTT against Olfr900, for which the z-score is inactive: -0.318. Consider CCUAUACAUGCUACUGAACTT against Itga9, for which the z-score is inactive: -0.723. Under GGCAUUCAGUGUUGCGUACTT against Apba1 stands inactive: -0.245.

As for GGUGAUGAUCCCAUGGGUUTT against Ube2g2, the z-score is inactive: -0.289.

On to CCCAAAUGUUAUUCCAAAUTT against Cfap300, for which the z-score is inactive: 1.07. As to GCCGGUGGAAUAUGCUCCATT against Clrn3, the z-score was inactive: -0.614. On to GGACUGAAGCUUACUUUCUTT against Fndc7, for which the z-score is inactive: 0.155.

Regarding AUUCUCUGGUUCAAGCUACTT against Olfr223, the z-score is inactive: -1.04. Regarding GUUACCACACCAAAAAUGGTT against Olfr1299, the z-score was inactive: -1.59. Regarding GACUACAAAGGAGAGCAAATT against Igfbp6, the z-score is active: 2.07. For GGGCAGUAAGACCUUCAUGTT against Dhcr24, the z-score was inactive: 0.685. In the case of CCUAUGAAUGUGUUAAAGATT against Osgin2, the z-score was inactive: 0.428. As for CCUGAAUACCAUGACAUGUTT against Tfpi2, the z-score was inactive: -0.192. For GGAACAACUUCGAACAUAATT against Dok3, the z-score was inactive: 0.234. Under GCUCAGCUUGCUUCACUCATT against Lrrc8e stands inactive: -1.79.

On to AACACUGGGUACAUCUACATT against H2-Q7, for which the z-score was inactive: 1.75. In the case of GCCGCUGUCCAUCUUUAUGTT against Tmem121b, the z-score is inactive: -0.341. Regarding GGCUUUCACUGAAGAUCUUTT against Fancg, the z-score was inactive: 0.0412. As for GCUGGAUCCAUACAAUUUGTT against Gdi2, the z-score is inactive: -0.619. Under CCAAUGCACAGGUCAUCACTT against Lbx1 stands inactive: -0.457; under CCUCCUAUGUCUUCCUCAUTT against Olfr1173, inactive: 0.343; under GGUUAUCAUACUUUUUGUGTT against Phf10, inactive: -0.582. For the sequence CGGUAAGUUAAAGAAGACATT against Erlin1, the z-score was inactive: 1.35. Turning to GCCUGGCUGACGAUAUAGATT against Golga2, the z-score was inactive: 0.0977. Take CCAAAACGGAGAAAAUCAGTT against Ccar1: the z-score was inactive: -0.16.

In the case of GGCAUUGAGAAGUUUGAAGTT against Fmo9, the z-score is inactive: -1.07. As for GGCCUGUGAGACCAAUUGGTT against Zfp629, the z-score is inactive: -0.528. With GGACAAUGCAGUGCUGAAATT against Car2, the z-score was active: 3.37. For the sequence GGAGGUCCAACUAAGACACTT against Fzd8, the z-score is inactive: -1.01.

On to GCAACCUUCAUUCGUAUAUTT against Wdcp, for which the z-score was inactive: 0.436. In the case of GGUGUUUGAUAGGUAUCUUTT against Ptpa, the z-score is inactive: -1.12. Turning to GGUGUUUCAGGUGGACUAUTT against Dzank1, the z-score is inactive: 1.04. For CCAUCCCAUUUAAUGGAUGTT against Olfr1257 the value was inactive: 1.09. As for GGAAGCUGUUUCAAACAAATT against Ugt2b35, the z-score was inactive: 0.145. Turning to GGAUUAUGGUCCAAAUAAATT against Hpcal4, the z-score is inactive: 0.547. For GGACAGCUACCUCAUCCAUTT against Lpcat3 the value was active: 2.08. Under CCAUGUUUUCCGCUUCAAUTT against Kif1c stands inactive: 0.0159. As for GCAUGUUACUAGGAUAACUTT against Mup20, the z-score is active: 2.27.

GGAUCAGGAGCUGUUUGGATT against Adamtsl4: the z-score is inactive: 1.05. Under GGAAAAAGAGAAGACCUGCTT against Dcun1d4 stands inactive: -1.01; under GGUGCAUUACAAAUACACATT against Ncf2, inactive: 1.05. As for GGUCACGUGCAGUUAUAUCTT against Rab32, the z-score is inactive: -0.869. Consider GGCCCUGUGAUAUUUCUCGTT against Pax8, for which the z-score was inactive: -0.797. For CGGACUUCAAGGACAAGAUTT against Carm1 the value was inactive: 0.456; for GGGCAAAGACAUUUUGUAUTT against Nt5c2, inactive: -0.337; for GCCUGUGCCUUUUGAAUUCTT against Brox, inactive: -0.0201. Consider CGCUACCUACAGAAUAACATT against Naif1, for which the z-score was inactive: -0.8.

As to CCUUUGUAAAGACUACUUATT against Ssh2, the z-score was inactive: 1.87. Consider GGAGAAGAUCAAGAUGUUCTT against Adi1, for which the z-score is inactive: -0.0286. Regarding GGCUACAAACUUCAAGAAATT against Cel, the z-score is inactive: -0.602. Consider CGUGGUUAAGUUUGCUGGGTT against P2rx3, for which the z-score was inactive: 1.16. For GGUGGAGCUGGACAAGAAGTT against Nefm the value was inactive: 0.454; for GGCAGAGUGCAUUUUGCUATT against Ptpn5, inactive: 0.411; for GCAUCAUACCACUGUGUUUTT against Obox1, inactive: -1. As for “GCCAACGAGAGUAAACACGTT against 5930403N24Rik”, the z-score is inactive: -0.0706. In the case of GGAAUGGUAUCAGACUUCUTT against Tarm1, the z-score was inactive: 1.54. On to GGAAGCUACCUGGAAGACATT against Meaf6, for which the z-score is inactive: 0.0935. As to GGCAGAGAAAGAGCUAAAGTT against Dtx3, the z-score was inactive: 0.663. Consider GCCGAAUAUUUCGGAGCCATT against Ropn1, for which the z-score is inactive: -0.286. For GCCGAGGCUGUUGUGUUGATT against Gpaa1 the value was inactive: -1.04; for CCUCAAAAUCCUACAUCUUTT against AY702103, inactive: -0.456. For CCUUUCAAGUUGUAGGCUGTT against Zfp759 the value was inactive: 0.0416. In the case of GCUCUUAGGACAGACAGACTT against Dnajb12, the z-score was inactive: 1.05. GGAGUCUUCUCAAUUUGACTT against Olfr1105: the z-score is inactive: -0.617. On to GGUUGGCCUAAUAGUGCAUTT against Cbr1, for which the z-score was inactive: 0.732. On to CCAUAUCCUUAACCUUAGGTT against Gdi1, for which the z-score is inactive: 0.701. Consider GGUUCUAGGGAAAAAAACATT against Celf3, for which the z-score was inactive: -0.417. Take CGAAUCUCUGGCAAAAUGGTT against Cdk1: the z-score is inactive: -0.0941. For GGAAGAUCAAGGGACUCAUTT against Serpina3c the value was inactive: 0.0466. Consider GCCUCCUUGUCUGGAAAUUTT against Aftph, for which the z-score is inactive: -0.797. Consider GCGUGGUCUUAACUGCUCATT against Zfat, for which the z-score is inactive: -0.212. As to GGCAGAAUACUAUAUAUAGTT against Tmx2, the z-score is inactive: 0.879. For GGCCAGUCAAGGUUGGAUUTT against Gpr152 the value was inactive: -0.32. For GGUCAUCAACGUGCUAGAGTT against Nucb1 the value was inactive: -1.3; for GGAUAACACCACCAACUAUTT against Akap8l, inactive: 0.456. For GCAGAAUGAGUUCAGACGATT against Mgmt the value was inactive: 0.36; for GGAAGUAAUCAAUUUGGUGTT against Epm2aip1, inactive: 1.36; for GCUUCAGCUCAACUCCGCATT against Vps33a, inactive: 0.214. For GGCCUUGUAUCUCUUUACATT against Hdgf, the z-score was inactive: 0.425. Regarding GGUCCAUCAUGAGGUCUCUTT against Phkg2, the z-score was inactive: -1.59. With GCAAAUAUAUGUUUGGCUGTT against Snap25, the z-score is inactive: 0.892. Consider CCCACUCCGAUAUACUGCUTT against Olfr447, for which the z-score was active: 2.2.

These data come from PubChem BioAssay AID1508600 (Functional Genomics Laboratory (NCATS/FGL), 2020).
